We go through one molecule from paper PMC4466796.

By UniProt entry, the sequences of proteins in these tests, tags left out. Where a name states a change or a piece, a line headed by the entry shows the natural chain unless it says otherwise.
UniProt P15056: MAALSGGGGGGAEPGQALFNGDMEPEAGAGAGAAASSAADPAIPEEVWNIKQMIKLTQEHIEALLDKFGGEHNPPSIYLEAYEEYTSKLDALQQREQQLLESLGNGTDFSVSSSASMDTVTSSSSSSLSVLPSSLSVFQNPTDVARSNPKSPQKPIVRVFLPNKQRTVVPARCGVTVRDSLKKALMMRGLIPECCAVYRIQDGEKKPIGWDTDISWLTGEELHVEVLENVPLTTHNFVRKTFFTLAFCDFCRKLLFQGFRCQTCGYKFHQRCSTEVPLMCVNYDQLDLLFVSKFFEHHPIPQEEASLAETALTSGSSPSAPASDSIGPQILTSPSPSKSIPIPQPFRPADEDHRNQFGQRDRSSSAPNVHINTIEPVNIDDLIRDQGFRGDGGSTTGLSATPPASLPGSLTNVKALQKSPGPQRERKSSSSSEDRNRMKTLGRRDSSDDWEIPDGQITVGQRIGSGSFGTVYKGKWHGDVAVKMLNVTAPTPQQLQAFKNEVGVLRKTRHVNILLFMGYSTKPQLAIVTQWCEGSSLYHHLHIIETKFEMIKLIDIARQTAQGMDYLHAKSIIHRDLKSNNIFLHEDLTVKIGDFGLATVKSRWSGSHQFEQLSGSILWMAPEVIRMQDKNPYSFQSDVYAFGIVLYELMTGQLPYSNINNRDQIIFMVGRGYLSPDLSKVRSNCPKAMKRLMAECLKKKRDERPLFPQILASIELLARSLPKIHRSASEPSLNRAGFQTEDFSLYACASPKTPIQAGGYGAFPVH

One assay addresses FLAG-BRAF V600E (UniProt P15056). In words: co-IP; Cos-1 co-transfected with FLAG-BRAF WT or V600E and Myc-MIG-6 or Myc-EBR, serum starved (reproducible after FBS incubation); anti-FLAG IP; blots for Myc and pEGFR (Y1173).
For the next assay, the target named is FLAG-BRAF WT (UniProt P15056). Described as above.

These are yes or no findings as the source states them, for the method shown. In cells and extracts the contact can be indirect. Sequences can lack the tags named with a protein.

B1: Myc-EBR (domain or fragment, UniProt Q9UJM3 284-399)
chain: PPRVPIPPRPVKPDYRRWSAEVTSSTYSDEDRPPKVPPREPLSPSNSRTPSPKSLPSYLNGVMPPTQSFAPDPKYVSSKALQRQNSEGSASKVPCILPIIENGKKVSSTHYYLLPE
Regarding B1, the binding result in the assay with FLAG-BRAF V600E and in the assay with FLAG-BRAF WT was “no binding” in each case.
